Drawing on article PMC12646662, this text covers binding for two molecules.

Test [1] deals with T1, Catenin Delta 1 (CTNND1), endogenous in SK-Mel-28 cells (human (endogenous in SK-Mel-28)) (UniProt O60716).
T1 sequence: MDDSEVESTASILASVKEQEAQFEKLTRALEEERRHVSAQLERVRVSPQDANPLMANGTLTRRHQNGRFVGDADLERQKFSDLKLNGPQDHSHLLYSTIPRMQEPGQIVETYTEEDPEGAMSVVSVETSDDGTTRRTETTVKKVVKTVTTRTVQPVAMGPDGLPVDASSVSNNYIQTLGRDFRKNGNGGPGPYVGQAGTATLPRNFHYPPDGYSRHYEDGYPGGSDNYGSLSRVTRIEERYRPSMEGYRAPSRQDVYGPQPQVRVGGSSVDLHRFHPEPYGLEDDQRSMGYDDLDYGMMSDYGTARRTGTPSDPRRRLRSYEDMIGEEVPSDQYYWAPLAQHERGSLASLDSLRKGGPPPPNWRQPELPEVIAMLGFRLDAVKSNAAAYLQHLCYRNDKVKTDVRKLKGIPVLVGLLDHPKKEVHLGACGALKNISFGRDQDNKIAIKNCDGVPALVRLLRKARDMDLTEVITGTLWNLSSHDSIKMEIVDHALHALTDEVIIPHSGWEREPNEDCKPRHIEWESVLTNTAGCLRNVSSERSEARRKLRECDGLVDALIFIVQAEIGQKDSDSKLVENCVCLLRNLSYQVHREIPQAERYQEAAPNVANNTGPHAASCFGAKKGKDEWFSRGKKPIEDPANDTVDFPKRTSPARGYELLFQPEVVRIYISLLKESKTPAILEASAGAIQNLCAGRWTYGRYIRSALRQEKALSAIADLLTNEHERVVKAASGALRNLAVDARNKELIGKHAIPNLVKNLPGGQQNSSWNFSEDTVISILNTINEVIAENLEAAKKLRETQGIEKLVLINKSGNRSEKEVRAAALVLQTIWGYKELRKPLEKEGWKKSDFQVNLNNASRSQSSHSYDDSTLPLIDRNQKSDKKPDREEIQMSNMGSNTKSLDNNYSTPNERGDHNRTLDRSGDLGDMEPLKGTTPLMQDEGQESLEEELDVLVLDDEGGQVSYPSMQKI
Briefly: co-IP; anti-CTNND1 immunoprecipitates from SK-Mel-28 whole-cell lysate, immunoblot; endogenous proteins. (In general: In western blotting, separated proteins are transferred to a membrane and probed.)

Test [2] deals with T2, Flag-CTNND1 (HEK293T) (UniProt O60716).
T2 sequence: T1 sequence
Briefly: co-IP; HEK293T cells transfected with HA-ZDHHC13 and Flag-CTNND1; anti-Flag or anti-HA immunoprecipitates, immunoblot.

No constants are given. Whether binding was seen depends on the method and setting. Binding seen in cells or lysates may run through a third protein. Some binding calls cover weakened binding; strength is not graded here. For some assays here: Tags and fused reporters may be left off the sequences shown.

B1: ZDHHC13, endogenous in SK-Mel-28 cells (enzyme, UniProt Q8IUH4 1-622)
chain: MEGPGLGSQCRNHSHGPHPPGFGRYGICAHENKELANAREALPLIEDSSNCDIVKATQYGIFERCKELVEAGYDVRQPDKENVSLLHWAAINNRLDLVKFYISKGAVVDQLGGDLNSTPLHWAIRQGHLPMVILLLQHGADPTLIDGEGFSSIHLAVLFQHMPIIAYLISKGQSVNMTDVNGQTPLMLSAHKVIGPEPTGFLLKFNPSLNVVDKIHQNTPLHWAVAAGNVNAVDKLLEAGSSLDIQNVKGETPLDMALQNKNQLIIHMLKTEAKMRANQKFRLWRWLQKCELFLLLMLSVITMWAIGYILDFNSDSWLLKGCLLVTLFFLTSLFPRFLVGYKNLVYLPTAFLLSSVFWIFMTWFILFFPDLAGAPFYFSFIFSIVAFLYFFYKTWATDPGFTKASEEEKKVNIITLAETGSLDFRTFCTSCLIRKPLRSLHCHVCNCCVARYDQHCLWTGRCIGFGNHHYYIFFLFFLSMVCGWIIYGSFIYLSSHCATTFKEDGLWTYLNQIVACSPWVLYILMLATFHFSWSTFLLLNQLFQIAFLGLTSHERISLQKQSKHMKQTLSLRKTPYNLGFMQNLADFFQCGCFGLVKPCVVDWTSQYTMVFHPAREKVLRSV
Turning to B1, in test [1], the binding result is reported as “binds”.

B2: HA-ZDHHC13 (HEK293T) (enzyme, UniProt Q8IUH4 1-622)
chain: B1 chain
On to B2, for which the binding entry in test [2] is listed as “binds”.
